Measurements as given in paper PMC5814163.
These are yes or no findings as the source states them, for the method shown. Binding seen in cells or lysates may run through a third protein. Some binding calls cover weakened binding; strength is not graded here.

The chains behind the UniProt entries cited, without tags or fusion partners.
UniProt P42224: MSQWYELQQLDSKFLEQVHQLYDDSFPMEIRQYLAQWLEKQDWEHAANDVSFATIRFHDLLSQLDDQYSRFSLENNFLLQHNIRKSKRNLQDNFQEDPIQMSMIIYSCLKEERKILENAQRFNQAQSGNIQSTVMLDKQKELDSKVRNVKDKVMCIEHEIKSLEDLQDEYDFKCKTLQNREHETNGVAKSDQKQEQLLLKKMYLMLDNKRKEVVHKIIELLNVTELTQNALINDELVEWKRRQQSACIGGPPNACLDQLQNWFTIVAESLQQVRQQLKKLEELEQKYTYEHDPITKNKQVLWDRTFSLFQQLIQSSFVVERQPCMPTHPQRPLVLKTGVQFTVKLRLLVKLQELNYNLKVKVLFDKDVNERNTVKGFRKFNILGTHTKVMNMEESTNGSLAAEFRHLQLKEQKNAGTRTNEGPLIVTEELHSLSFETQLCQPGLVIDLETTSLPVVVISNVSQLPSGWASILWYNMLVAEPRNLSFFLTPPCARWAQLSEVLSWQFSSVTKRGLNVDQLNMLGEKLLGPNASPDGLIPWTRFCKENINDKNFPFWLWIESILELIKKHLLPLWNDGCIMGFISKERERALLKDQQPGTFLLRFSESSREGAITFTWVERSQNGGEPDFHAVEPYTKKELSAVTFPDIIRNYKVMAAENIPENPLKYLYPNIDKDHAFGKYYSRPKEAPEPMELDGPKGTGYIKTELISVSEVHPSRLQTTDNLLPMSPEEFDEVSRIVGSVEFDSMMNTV
UniProt P52630: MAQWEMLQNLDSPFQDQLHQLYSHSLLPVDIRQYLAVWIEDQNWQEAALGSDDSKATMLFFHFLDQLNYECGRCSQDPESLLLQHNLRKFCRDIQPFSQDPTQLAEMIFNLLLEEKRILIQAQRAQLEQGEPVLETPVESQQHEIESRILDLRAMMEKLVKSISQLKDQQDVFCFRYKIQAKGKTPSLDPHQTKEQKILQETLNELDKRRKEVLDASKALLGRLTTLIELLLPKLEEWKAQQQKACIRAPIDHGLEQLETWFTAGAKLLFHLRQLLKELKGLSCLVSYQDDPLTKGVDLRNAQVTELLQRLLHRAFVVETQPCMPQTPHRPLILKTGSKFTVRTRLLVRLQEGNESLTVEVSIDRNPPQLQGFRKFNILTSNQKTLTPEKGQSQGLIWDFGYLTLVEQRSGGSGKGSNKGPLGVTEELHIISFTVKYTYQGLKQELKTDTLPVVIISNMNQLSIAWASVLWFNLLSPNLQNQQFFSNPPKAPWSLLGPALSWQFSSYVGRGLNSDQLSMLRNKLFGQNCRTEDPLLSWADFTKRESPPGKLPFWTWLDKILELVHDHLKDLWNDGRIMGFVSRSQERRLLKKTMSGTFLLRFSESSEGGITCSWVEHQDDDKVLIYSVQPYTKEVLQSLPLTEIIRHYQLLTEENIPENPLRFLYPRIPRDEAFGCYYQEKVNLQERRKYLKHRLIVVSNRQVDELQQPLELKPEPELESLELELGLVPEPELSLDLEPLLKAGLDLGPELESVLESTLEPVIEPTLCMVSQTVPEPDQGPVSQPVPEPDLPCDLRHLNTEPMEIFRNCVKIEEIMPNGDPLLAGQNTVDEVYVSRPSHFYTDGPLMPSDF

Tests used:
[1] = molecular target: STAT1 (human (endogenous in HepaRG)) (UniProt P42224); assay: co-IP; HepaRG cells transfected with NS5A expression vectors, 48 h, then IFN-α for 30 min; lysates immunoprecipitated with anti-STAT1 or anti-STAT2 antibody; immunoblot for NS5A
[2] = molecular target: STAT2 (human (endogenous in HepaRG)) (UniProt P52630); assay: as above
[3] = molecular target: NS5A of the Con1 strain expressed from the vector pCAG/5ACon1 (hepatitis C virus genotype 1b, Con1 strain) (UniProt Q9WMX2); assay: co-IP; HepaRG cells transfected with NS5A expression vectors, 48 h, then IFN-α for 30 min; lysates immunoprecipitated with an anti-NS5A antibody; immunoblot with anti-STAT1, anti-pSTAT1 and anti-STAT2 antibodies

“NS5A of the Con1 strain expressed from the vector pCAG/5ACon1 (from UniProt Q9WMX2 1973-2419)” was tested, and the binding [1] was “binds” and the binding [2] was “no binding”.
STAT1 (from UniProt P42224 1-750) was tested, and the binding [3] was “binds”.
STAT2 (from UniProt P52630 1-851) was tested, and the binding [3] was “no binding”.
